Measured data: PubChem BioAssay AID602196 (INSERM, 2012)
In all, the deposit lists about 23,000 reagents; this is a part drawn at random. 455 of all reagents (2%) were called active. 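Active includes both protection and sensitisation; some change values fall well beyond the stated -50 to +50 range.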 Entries without a mark were called inactive. Further read-outs or replicates are left out here. Not given: the amount of reagent.

Screen: 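Modifiers of cisplatin sensitivity in A549 cells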
Cells: human A549 lung cancer cells
Knock-down reagent: siRNA pair against human genes
Time to read-out: 48 h transfection before cisplatin; time from cisplatin to read-out not stated
Treatment: cisplatin at a dose killing half of control-siRNA cells; exact dose and duration not given
Read-out: 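Shift in cisplatin death relative to control siRNA, from -50 (all cells die) to +50 (no cells die); siRNAs harmful on their own scored 0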
Direction: two-siRNA summed score (-2 to +2): higher = both siRNAs protect from cisplatin killing; -2 means both sensitise; mean protection from cisplatin (shift in death): higher = protection from cisplatin killing
Active means: 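Each siRNA scores 0 if harmful alone by LDH or WST-1, otherwise +1 if it reduces and -1 if it increases cisplatin killing; a gene is active when both siRNAs agree (sum +2 or -2)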
Meaning of the calls: active = both siRNAs shift cisplatin killing the same way; inactive = no consistent shift, or siRNA harmful alone

Against NDUFS2, the values are two-siRNA summed score (-2 to +2) = 0; mean protection from cisplatin (shift in death) (%) = -5.6. MEST gave two-siRNA summed score (-2 to +2) = 0; mean protection from cisplatin (shift in death) (%) = 1.7. After knock-down of NUP214, the screen gave two-siRNA summed score (-2 to +2) = 1; mean protection from cisplatin (shift in death) (%) = 12.8. Against LINC00879 the deposit lists two-siRNA summed score (-2 to +2) = 0; mean protection from cisplatin (shift in death) (%) = 5.3. For H2AC6, the values are two-siRNA summed score (-2 to +2) = 0; mean protection from cisplatin (shift in death) (%) = -4.4. Depletion of LOC390625 came out at: two-siRNA summed score (-2 to +2) = 1; mean protection from cisplatin (shift in death) (%) = 16.3.

After knock-down of HTR3D the results were two-siRNA summed score (-2 to +2) = 0; mean protection from cisplatin (shift in death) (%) = -0.3. Knock-down of NDST1 came out at: two-siRNA summed score (-2 to +2) = 0; mean protection from cisplatin (shift in death) (%) = 0.6. Silencing of LOC127150 came out at: two-siRNA summed score (-2 to +2) = 1; mean protection from cisplatin (shift in death) (%) = 14.9. With knock-down of SOX11 the results were two-siRNA summed score (-2 to +2) = -1; mean protection from cisplatin (shift in death) (%) = -14.5. Knock-down of GADD45A resulted in: two-siRNA summed score (-2 to +2) = 0; mean protection from cisplatin (shift in death) (%) = -0.1. After knock-down of B4GALT4 the results were two-siRNA summed score (-2 to +2) = 0; mean protection from cisplatin (shift in death) (%) = 16.2.

ANXA1 showed two-siRNA summed score (-2 to +2) = 0; mean protection from cisplatin (shift in death) (%) = -0.6. ITPR1 scored two-siRNA summed score (-2 to +2) = 0; mean protection from cisplatin (shift in death) (%) = -11.2. Against C5, the values are two-siRNA summed score (-2 to +2) = 0; mean protection from cisplatin (shift in death) (%) = -5.5. HRG scored two-siRNA summed score (-2 to +2) = 0; mean protection from cisplatin (shift in death) (%) = 7.8. For LOC388807 the deposit lists two-siRNA summed score (-2 to +2) = 0; mean protection from cisplatin (shift in death) (%) = 4.8. GJB7 scored two-siRNA summed score (-2 to +2) = 0; mean protection from cisplatin (shift in death) (%) = 13.1.

For PTS, the entry reads two-siRNA summed score (-2 to +2) = 0; mean protection from cisplatin (shift in death) (%) = 5.2. With knock-down of ID3, the screen gave two-siRNA summed score (-2 to +2) = 0; mean protection from cisplatin (shift in death) (%) = -10.8. Against TAS2R9, the values are two-siRNA summed score (-2 to +2) = -1; mean protection from cisplatin (shift in death) (%) = 5. After knock-down of MTMR4, the record shows two-siRNA summed score (-2 to +2) = 2 (active); mean protection from cisplatin (shift in death) (%) = 14. Depletion of NSUN2 came out at: two-siRNA summed score (-2 to +2) = -1; mean protection from cisplatin (shift in death) (%) = -4.1. Silencing of LOC401034 gave: two-siRNA summed score (-2 to +2) = 0; mean protection from cisplatin (shift in death) (%) = 4.6.

Silencing of LOC442606 resulted in: two-siRNA summed score (-2 to +2) = 2 (active); mean protection from cisplatin (shift in death) (%) = 14.9. IBTK gave two-siRNA summed score (-2 to +2) = 1; mean protection from cisplatin (shift in death) (%) = 9.6. LOC440824 showed two-siRNA summed score (-2 to +2) = 0; mean protection from cisplatin (shift in death) (%) = 14.3. After knock-down of BCAR3, the record shows two-siRNA summed score (-2 to +2) = -1; mean protection from cisplatin (shift in death) (%) = -4.9. For HRNR, the entry reads two-siRNA summed score (-2 to +2) = 1; mean protection from cisplatin (shift in death) (%) = 7.1. With knock-down of LOC389815, the screen gave two-siRNA summed score (-2 to +2) = 0; mean protection from cisplatin (shift in death) (%) = 3.9.

LOC390880 scored two-siRNA summed score (-2 to +2) = 1; mean protection from cisplatin (shift in death) (%) = 18.
